# Some of the results follow. This data set is noisy: repeats of one test often differ as much as different tests do.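 Researchers measured free-swimming zebrafish larvae's O-bend response probability to dark flashes (naive: first five; training: remaining flashes of four 60-flash blocks; test: later 60-flash block) and OMR turning toward alternating leftward/rightward LED motion. Six treated larvae were compared to sixty 0.1% DMSO controls, with |SSMD|≥2 marking a hit.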
# What was measured:
# Conditions in all cases: 10 µM; pre-incubation: 30-90 min
# [1] = tested on: Danio rerio larvae (5 dpf, TLF); test: OMR-Perf (SSMD vs DMSO vehicle); higher = higher than vehicle (e.g. higher dark-flash O-bend response probability, or better optomotor performance)
# [2] = tested on: Danio rerio larvae (5 dpf, TLF); test: Prob-Test (SSMD vs DMSO vehicle); higher = higher than vehicle (e.g. higher dark-flash O-bend response probability, or better optomotor performance)
# [3] = tested on: Danio rerio larvae (5 dpf, TLF); test: Prob-Naive (SSMD vs DMSO vehicle); higher = higher than vehicle (e.g. higher dark-flash O-bend response probability, or better optomotor performance)
# [4] = tested on: Danio rerio larvae (5 dpf, TLF); test: Prob-Train (SSMD vs DMSO vehicle); higher = higher than vehicle (e.g. higher dark-flash O-bend response probability, or better optomotor performance)
Structure (SMILES),OMR-Perf [1],Prob-Test [2],Prob-Naive [3],Prob-Train [4]
CC1(C)S[C@H]2[C@H](NC(=O)[C@H](N)c3ccc(O)cc3)C(=O)N2[C@H]1C(=O)O [Amoxicillin],0.306,-0.58,-0.195,-0.0715
O=C1[C@H](CC[C@H](O)c2ccc(F)cc2)[C@H](c2ccc(O)cc2)N1c1ccc(F)cc1 [Ezetimibe],-0.0288,0.0512,0.0155,-0.0785
CCCCCCCCc1ccc(CCC(N)(CO)CO)cc1.Cl [Fingolimod (FTY720) HCl],-1.08,-0.486,-0.363,-0.336
CCCCCOC(=O)Nc1nc(=O)n([C@@H]2O[C@H](C)[C@@H](O)[C@@H]2O)cc1F [Capecitabine],0.503,-0.405,-0.606,-0.433
Cc1cccc(-c2[nH]c(C(C)(C)C)nc2-c2ccc3c(c2)OCO3)n1,-0.769,-0.817,-0.258,-0.54
O=C(N/N=C/c1ccc(O)c(O)c1)c1cc2ccccc2cc1O [Dynasore],-0.271,-0.52,-0.433,-0.415
O=C(Nc1cc(C(F)(F)F)ccc1N1CCCCC1)c1ccncc1,0.31,-0.409,-3.04,-1.25
COc1cc(OC)c(/C=C/S(=O)(=O)Cc2ccc(OC)c(NCC(=O)[O-])c2)c(OC)c1.[Na+],0.841,0.498,0.252,0.22
CCCc1nc(C)c2c(=O)[nH]c(-c3cc(S(=O)(=O)N4CCN(CC)CC4)ccc3OCC)nn12.Cl.O.O.O [Vardenafil HCl Trihydrate],0.408,-0.442,-0.538,-0.779

# In another format: two of the compounds above
Structure (SMILES) | OMR-Perf [1] | Prob-Test [2] | Prob-Naive [3] | Prob-Train [4]
O=C1[C@H](CC[C@H](O)c2ccc(F)cc2)[C@H](c2ccc(O)cc2)N1c1ccc(F)cc1 [Ezetimibe] | -0.0288 | 0.0512 | 0.0155 | -0.0785
CCCCCCCCc1ccc(CCC(N)(CO)CO)cc1.Cl [Fingolimod (FTY720) HCl] | -1.08 | -0.486 | -0.363 | -0.336

# Source: the supplement of paper PMC10727501
